Reference: PubChem BioAssay AID1159584 (Peter MacCallum Cancer Centre, 2016)

- Test: 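Knock-downs that harm CDH1-null cells more than parental MCF10A cells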 (primary screen)
- Cell system: human MCF10A breast epithelial cells, parental and CDH1-null
- Reagent: siRNA against human genes
- Detection: 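Cell viability by CellTiter-Glo ATP luminescence, each line scaled to the mean of mock wells across plates, then CDH1-null over parental ratio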
- Scale: CDH1-null / parental viability ratio: higher = CDH1-null cells survive relatively better than parental; CDH1-null viability vs mock: higher = more viable CDH1-null cells
Here is one part, drawn at random, of about 18,000 reagents tested. Reagents against one gene are numbered here. Not all columns of the deposit are shown. Reagent sequences are not shown. Not stated in the record: the amount of reagent, the time to read-out.

Gene | siRNA no. | CDH1-null / parental viability ratio | CDH1-null viability vs mock (fraction of mock)
METTL6 | 1 | 1.06 | 1
HAUS8 | 1 | 1.02 | 1.04
TMEM69 | 1 | 1.12 | 0.92
GPR62 | 1 | 1.32 | 1
HSPA12A | 1 | 1.06 | 0.94
MMP12 | 1 | 1.07 | 0.6
COPS9 | 1 | 0.92 | 0.67
ZC3H8 | 1 | 1.09 | 0.74
GALNT2 | 1 | 1.01 | 0.77
CLEC4G | 1 | 1.15 | 0.53
LRRC3B | 1 | 1.46 | 0.73
POLK | 1 | 0.95 | 0.76
MRGPRX1 | 1 | 0.73 | 0.8
OR9A4 | 1 | 1.05 | 0.67
HMGCLL1 | 1 | 0.95 | 0.92
UBE2E2 | 1 | 1.05 | 0.96
AFTPH | 1 | 0.83 | 0.48
PRELID3B | 1 | 0.94 | 0.9
NAALADL1 | 1 | 0.97 | 0.7
ITFG2 | 1 | 1 | 0.38
ECT2 | 1 | 0.93 | 1.02
RRAS2 | 1 | 1.29 | 0.85
ACTL8 | 1 | 0.93 | 0.82
TEX261 | 1 | 1.12 | 0.94
CDH6 | 1 | 1 | 0.62
UGT2B28 | 1 | 0.92 | 0.77
SDK1 | 1 | 0.98 | 0.65
ZNRF2 | 1 | 1 | 1.04
CD2AP | 1 | 0.74 | 0.52
SPAG5 | 1 | 1.07 | 0.64
DMC1 | 1 | 0.84 | 0.72
MBLAC1 | 1 | 1.3 | 0.78
CCNH | 1 | 0.96 | 1.12
SYMPK | 1 | 1.25 | 0.91
SRPK1 | 1 | 1 | 0.94
INTU | 1 | 1.05 | 0.89
CORO1C | 1 | 0.94 | 0.46
ABR | 1 | 1.22 | 0.98
CYP1A1 | 1 | 0.88 | 0.56
SLC6A3 | 1 | 1.05 | 1.05
NUP58 | 1 | 1.12 | 0.36
FAM241B | 1 | 0.86 | 0.77
HOXC12 | 1 | 1.25 | 0.9
SEMA3A | 1 | 1.2 | 1.06
TDRKH | 1 | 0.89 | 0.57
BNIP5 | 1 | 1.01 | 0.75
MADCAM1 | 1 | 1.01 | 0.99
BTBD6 | 1 | 0.99 | 0.94
TMEM150C | 1 | 1.1 | 0.9
LCN12 | 1 | 0.92 | 0.96
HSPA1B | 1 | 0.87 | 0.87
GSS | 1 | 0.88 | 0.89
PTPN20 | 1 | 1.31 | 0.92
PTPN20 | 2 | 1.09 | 0.94
ST3GAL1 | 1 | 0.73 | 0.67
PCBD1 | 1 | 0.88 | 0.81
AEBP2 | 1 | 0.98 | 0.86
CCDC6 | 1 | 1.02 | 0.61
LAPTM4A | 1 | 1.14 | 0.82
FHIP2A | 1 | 0.7 | 0.48
ERLIN1 | 1 | 1.01 | 0.7
CATIP | 1 | 1.28 | 0.82
GMPR | 1 | 1.1 | 1.06
AQP5 | 1 | 1.04 | 0.83
RHCG | 1 | 1.08 | 0.91
LUC7L | 1 | 0.85 | 0.4
GATA3 | 1 | 0.98 | 0.88
TBC1D10B | 1 | 1.1 | 0.9
MRPL44 | 1 | 1.08 | 0.97
PRMT6 | 1 | 1.18 | 0.78
PCBP1 | 1 | 1.05 | 0.92
XPO1 | 1 | 1.03 | 0.8
CKAP2L | 1 | 0.97 | 0.88
RBM33 | 1 | 1.1 | 0.89
NDST2 | 1 | 1.31 | 1.05
ZNF416 | 1 | 1.01 | 0.93
MAP2K5 | 1 | 1 | 1.03
MFAP3L | 1 | 1.07 | 0.45
CDR1 | 1 | 1.07 | 0.8
MED13 | 1 | 1.05 | 0.82
THBS4 | 1 | 0.85 | 0.82
CT47A8 | 1 | 1.37 | 0.92
NHEJ1 | 1 | 0.94 | 0.98
TAGLN3 | 1 | 1.02 | 0.48
YTHDC1 | 1 | 0.7 | 0.52
ACRBP | 1 | 0.97 | 0.64
DYNLT5 | 1 | 1.28 | 0.82
